Some of the results follow. Repeats are few or missing, and single values can be far off.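 The apoptosis fraction was the count of cleaved-PARP antibody-stained nuclei relative to all DNA-stained nuclei, imaged in 1,536-well plates. Screening doses were set so most cells survived, and baseline and induced cleaved-PARP levels vary greatly across cell lines.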

In this experiment the test system is C32. Kind of experiment: cleaved PARP positive nuclei fraction relative to DMSO control; melanoma cells; higher = more apoptosis. As to conditions: library dose: low library concentration; 72 h.
Turning to `CN(C)S(=O)(=O)c1ccc2c(c1)/C(=C/c1cc3c([nH]1)CCCC3)C(=O)N2` + COc1cc2ncnc(Nc3ccc(Oc4ccccc4)cc3)c2cc1OC [SrcI1] (first compound 0.4 µM, partner dose 2 µM), the “cleaved PARP positive nuclei fraction” value worked out at 124%.

Turning to `NCC(=O)Nc1ccc(-n2nc(C(F)(F)F)cc2-c2ccc3c(ccc4ccccc43)c2)cc1` + Cn1cc(/C=C2\C(=O)Nc3cccnc32)c2ccccc21 [GW441756] (first compound 1 µM, partner dose 0.4 µM), the “cleaved PARP positive nuclei fraction” value turned out to be 141%.

Regarding `O=C(Nc1ccccc1)c1cc([N+](=O)[O-])ccc1Cl` + Oc1cc(-c2nc(-c3ccccc3)[nH]c2-c2ccncc2)ccc1Cl [L779450] (first compound 2 µM, partner dose 0.2 µM), the “cleaved PARP positive nuclei fraction” value was 217%.

Consider `O=C1NC(=O)/C(=C/c2ccc(-c3ccc(F)cc3O)o2)S1` + c1cc(-c2cnn3cc(-c4ccc(OCCN5CCCCC5)cc4)cnc23)ccn1 [Dorsomorphin] (first compound 1 µM, partner dose 0.4 µM), for which the “cleaved PARP positive nuclei fraction” value is 144%.

Regarding `COC(=O)c1sccc1S(=O)(=O)Nc1ccc(Nc2ccccc2)cc1OC` + COc1ccc(COc2ccc(Cc3cnc(N)nc3N)cc2OC)cc1 [GW2580] (first compound 1 µM, partner dose 1 µM), the “cleaved PARP positive nuclei fraction” value was 210%.

Regarding `COc1cc2c(Oc3ccc4[nH]c(C)cc4c3F)ncnc2cc1OCCCN1CCCC1` [cediranib] + CCN(CC)CCCCNc1ncc2cc(-c3cc(OC)cc(OC)c3)c(NC(=O)NC(C)(C)C)nc2n1 [PD173074] (first compound 0.4 µM, partner dose 0.1 µM), the “cleaved PARP positive nuclei fraction” value was found to be 91.2%.

`O=C1NC(=O)/C(=C/c2ccc(-c3ccc(F)cc3O)o2)S1` + COc1cc(N2CCC(N3CCN(C)CC3)CC2)ccc1Nc1ncc(Cl)c(Nc2ccccc2S(=O)(=O)C(C)C)n1 [NVP-TAE684] (first compound 1 µM, partner dose 0.08 µM): the “cleaved PARP positive nuclei fraction” value came to 110%.

Take `O=C(O)c1ccc(-c2c[nH]c3ncc(-c4ccccc4)cc23)cc1C1CCCC1` + O=C(O)C(=O)Nc1sc2c(c1C(=O)O)CCNC2 [TCS401] (first compound 0.16 µM, partner dose 1.66667 µM): the “cleaved PARP positive nuclei fraction” value was 134%.

As for `CN(NC(=O)CC(=O)NN(C)C(=S)c1ccccc1)C(=S)c1ccccc1` + CCN(CC)CCCCNc1ncc2cc(-c3cc(OC)cc(OC)c3)c(NC(=O)NC(C)(C)C)nc2n1 [PD173074] (first compound 0.006 µM, partner dose 0.1 µM), the “cleaved PARP positive nuclei fraction” value turned out to be 105%.

Take `NCC(=O)Nc1ccc(-n2nc(C(F)(F)F)cc2-c2ccc3c(ccc4ccccc43)c2)cc1` + Cc1cc([N+](=O)[O-])ccc1NS(=O)(=O)c1cc(Cl)ccc1Cl [FH535] (first compound 1 µM, partner dose 1 µM): the “cleaved PARP positive nuclei fraction” value was determined as 62.1%.

In the case of `COc1ccc(COc2ccc(Cc3cnc(N)nc3N)cc2OC)cc1` + O=S(=O)(c1ccccc1)N(CC(F)(F)F)c1ccc(C(O)(C(F)(F)F)C(F)(F)F)cc1 [T0901317] (first compound 1 µM, partner dose 1.4 µM), the “cleaved PARP positive nuclei fraction” value was 29.7%.

For `O=C(Nc1ccccc1)c1cc([N+](=O)[O-])ccc1Cl` + COc1ccc(COc2ccc(Cc3cnc(N)nc3N)cc2OC)cc1 [GW2580] (first compound 2 µM, partner dose 1 µM), the “cleaved PARP positive nuclei fraction” value was determined as 55.8%.

Consider `NCC(=O)Nc1ccc(-n2nc(C(F)(F)F)cc2-c2ccc3c(ccc4ccccc43)c2)cc1` + COc1ccc(-c2ccc3c(N4CCOCC4)nc(N4C[C@@H](C)O[C@@H](C)C4)nc3n2)cc1CO [KU0063794] (first compound 1 µM, partner dose 0.02 µM), for which the “cleaved PARP positive nuclei fraction” value amounted to 94.8%.

For the molecule `COc1cc2c(Oc3ccc4[nH]c(C)cc4c3F)ncnc2cc1OCCCN1CCCC1` [cediranib] + COc1ccc(-c2ccc3c(N4CCOCC4)nc(N4C[C@@H](C)O[C@@H](C)C4)nc3n2)cc1CO [KU0063794] (first compound 0.4 µM, partner dose 0.02 µM), the “cleaved PARP positive nuclei fraction” value was determined as 102%.

As to `O=S(=O)(c1ccccc1)N(CC(F)(F)F)c1ccc(C(O)(C(F)(F)F)C(F)(F)F)cc1` + CC(C)CCN1c2nc(Nc3cc(F)c(O)c(F)c3)ncc2N(C)C(=O)C1C [BID1870] (first compound 1.4 µM, partner dose 0.2 µM), the “cleaved PARP positive nuclei fraction” value was 63%.

In the case of `NCC(=O)Nc1ccc(-n2nc(C(F)(F)F)cc2-c2ccc3c(ccc4ccccc43)c2)cc1` + COc1cc2ncnc(Nc3ccc(Oc4ccccc4)cc3)c2cc1OC [SrcI1] (first compound 1 µM, partner dose 2 µM), the “cleaved PARP positive nuclei fraction” value was 79%.

`NCC(=O)Nc1ccc(-n2nc(C(F)(F)F)cc2-c2ccc3c(ccc4ccccc43)c2)cc1` + O=C1NC(=O)/C(=C/c2ccc(-c3ccc(F)cc3O)o2)S1 [AS252424] (first compound 1 µM, partner dose 1 µM): the “cleaved PARP positive nuclei fraction” value is 145%.

As to `COc1cc2ncnc(Nc3ccc(Oc4ccccc4)cc3)c2cc1OC` + c1cc(-c2cnn3cc(-c4ccc(OCCN5CCCCC5)cc4)cnc23)ccn1 [Dorsomorphin] (first compound 2 µM, partner dose 0.4 µM), the “cleaved PARP positive nuclei fraction” value was found to be 71.9%.

Regarding `CCc1ccc(CCOc2ccc(CC3SC(=O)NC3=O)cc2)nc1` (stereo unspecified) [pioglitazone] + COC(=O)c1sccc1S(=O)(=O)Nc1ccc(Nc2ccccc2)cc1OC [GSK0660] (first compound 2 µM, partner dose 1 µM), the “cleaved PARP positive nuclei fraction” value came to 86.6%.

On to `O=C(Nc1ccccc1)c1cc([N+](=O)[O-])ccc1Cl` + COc1ccc2c(c1)CCC1C2CCC2(C)C(NCCCCCCN3C(=O)C=CC3=O)CCC12 [U73122] (first compound 2 µM, partner dose 0.4 µM), for which the “cleaved PARP positive nuclei fraction” value was 68%.

On to `COc1cc2c(Oc3ccc4[nH]c(C)cc4c3F)ncnc2cc1OCCCN1CCCC1` [cediranib] + O=C1NC(=O)/C(=C/c2ccc(-c3ccc(F)cc3O)o2)S1 [AS252424] (first compound 0.4 µM, partner dose 1 µM), for which the “cleaved PARP positive nuclei fraction” value came to 212%.

Turning to `O=C(O)c1ccc(-c2c[nH]c3ncc(-c4ccccc4)cc23)cc1C1CCCC1` + CCc1ccc(CCOc2ccc(CC3SC(=O)NC3=O)cc2)nc1 [pioglitazone] (first compound 0.16 µM, partner dose 2 µM), the “cleaved PARP positive nuclei fraction” value came to 131%.

As to `COc1cc2ncnc(Nc3ccc(Oc4ccccc4)cc3)c2cc1OC` + Oc1cc(-c2nc(-c3ccccc3)[nH]c2-c2ccncc2)ccc1Cl [L779450] (first compound 2 µM, partner dose 0.2 µM), the “cleaved PARP positive nuclei fraction” value is 66.3%.

As to `Oc1nc(-c2ccc(C(F)(F)F)cc2)nc2c1CSCC2` + O=c1cc(-c2cccc3c2Sc2ccccc2S3)oc(N2CCOCC2)c1 [KU55933] (first compound 2 µM, partner dose 1 µM), the “cleaved PARP positive nuclei fraction” value turned out to be 64.5%.

In the case of `COc1ccc(-c2ccc3c(N4CCOCC4)nc(N4C[C@@H](C)O[C@@H](C)C4)nc3n2)cc1CO` + O=S(=O)(c1ccccc1)N(CC(F)(F)F)c1ccc(C(O)(C(F)(F)F)C(F)(F)F)cc1 [T0901317] (first compound 0.02 µM, partner dose 1.4 µM), the “cleaved PARP positive nuclei fraction” value is 93.9%.

As for `N#Cc1c(O)c2c(-c3ccc(-c4ccccc4O)cc3)csc2[nH]c1=O` + Cn1cc(/C=C2\C(=O)Nc3cccnc32)c2ccccc21 [GW441756] (first compound 2 µM, partner dose 0.4 µM), the “cleaved PARP positive nuclei fraction” value was 73.6%.

As for `NCC(=O)Nc1ccc(-n2nc(C(F)(F)F)cc2-c2ccc3c(ccc4ccccc43)c2)cc1` + O=C(O)C(=O)Nc1sc2c(c1C(=O)O)CCNC2 [TCS401] (first compound 1 µM, partner dose 1.66667 µM), the “cleaved PARP positive nuclei fraction” value was determined as 211%.

With `NCC(=O)Nc1ccc(-n2nc(C(F)(F)F)cc2-c2ccc3c(ccc4ccccc43)c2)cc1` + CCc1ccc(CCOc2ccc(CC3SC(=O)NC3=O)cc2)nc1 [pioglitazone] (first compound 1 µM, partner dose 2 µM), the “cleaved PARP positive nuclei fraction” value was 45.6%.

On to `O=C(Nc1ccccc1)c1cc([N+](=O)[O-])ccc1Cl` + CC(C)CCN1c2nc(Nc3cc(F)c(O)c(F)c3)ncc2N(C)C(=O)C1C [BID1870] (first compound 2 µM, partner dose 0.2 µM), for which the “cleaved PARP positive nuclei fraction” value came out at 162%.

In the case of `O=C(O)c1ccc(-c2c[nH]c3ncc(-c4ccccc4)cc23)cc1C1CCCC1` + Oc1cc(-c2nc(-c3ccccc3)[nH]c2-c2ccncc2)ccc1Cl [L779450] (first compound 0.16 µM, partner dose 0.2 µM), the “cleaved PARP positive nuclei fraction” value was found to be 126%.

As to `CN(C)S(=O)(=O)c1ccc2c(c1)/C(=C/c1cc3c([nH]1)CCCC3)C(=O)N2` + COc1ccc(COc2ccc(Cc3cnc(N)nc3N)cc2OC)cc1 [GW2580] (first compound 0.4 µM, partner dose 1 µM), the “cleaved PARP positive nuclei fraction” value stood at 63.4%.

On to `COc1ccc(COc2ccc(Cc3cnc(N)nc3N)cc2OC)cc1` + c1cc(-c2cnn3cc(-c4ccc(OCCN5CCCCC5)cc4)cnc23)ccn1 [Dorsomorphin] (first compound 1 µM, partner dose 0.4 µM), for which the “cleaved PARP positive nuclei fraction” value was 230%.

For the molecule `COc1ccc(-c2ccc3c(N4CCOCC4)nc(N4C[C@@H](C)O[C@@H](C)C4)nc3n2)cc1CO` + Oc1cc(-c2nc(-c3ccccc3)[nH]c2-c2ccncc2)ccc1Cl [L779450] (first compound 0.02 µM, partner dose 0.2 µM), the “cleaved PARP positive nuclei fraction” value was found to be 73.3%.

Turning to `CCN(CC)CCCCNc1ncc2cc(-c3cc(OC)cc(OC)c3)c(NC(=O)NC(C)(C)C)nc2n1` + Cc1cc([N+](=O)[O-])ccc1NS(=O)(=O)c1cc(Cl)ccc1Cl [FH535] (first compound 0.1 µM, partner dose 1 µM), the “cleaved PARP positive nuclei fraction” value came out at 205%.

`O=S(=O)(c1ccccc1)N(CC(F)(F)F)c1ccc(C(O)(C(F)(F)F)C(F)(F)F)cc1` + Cc1cc([N+](=O)[O-])ccc1NS(=O)(=O)c1cc(Cl)ccc1Cl [FH535] (first compound 1.4 µM, partner dose 1 µM): the “cleaved PARP positive nuclei fraction” value is 146%.

Consider `COc1cc2ncnc(Nc3ccc(Oc4ccccc4)cc3)c2cc1OC` + O=C(O)C(=O)Nc1sc2c(c1C(=O)O)CCNC2 [TCS401] (first compound 2 µM, partner dose 1.66667 µM), for which the “cleaved PARP positive nuclei fraction” value was found to be 35.6%.

The record behind these values is the supplement of paper PMC4604168 (melanoma cell lines).
